Consider 1 molecule from PMC4265741.

Sequences of proteins named here, by UniProt entry; tags and fusion partners are left off. A change or cut given only in a name is not applied to a line headed by its entry.
UniProt Q00944: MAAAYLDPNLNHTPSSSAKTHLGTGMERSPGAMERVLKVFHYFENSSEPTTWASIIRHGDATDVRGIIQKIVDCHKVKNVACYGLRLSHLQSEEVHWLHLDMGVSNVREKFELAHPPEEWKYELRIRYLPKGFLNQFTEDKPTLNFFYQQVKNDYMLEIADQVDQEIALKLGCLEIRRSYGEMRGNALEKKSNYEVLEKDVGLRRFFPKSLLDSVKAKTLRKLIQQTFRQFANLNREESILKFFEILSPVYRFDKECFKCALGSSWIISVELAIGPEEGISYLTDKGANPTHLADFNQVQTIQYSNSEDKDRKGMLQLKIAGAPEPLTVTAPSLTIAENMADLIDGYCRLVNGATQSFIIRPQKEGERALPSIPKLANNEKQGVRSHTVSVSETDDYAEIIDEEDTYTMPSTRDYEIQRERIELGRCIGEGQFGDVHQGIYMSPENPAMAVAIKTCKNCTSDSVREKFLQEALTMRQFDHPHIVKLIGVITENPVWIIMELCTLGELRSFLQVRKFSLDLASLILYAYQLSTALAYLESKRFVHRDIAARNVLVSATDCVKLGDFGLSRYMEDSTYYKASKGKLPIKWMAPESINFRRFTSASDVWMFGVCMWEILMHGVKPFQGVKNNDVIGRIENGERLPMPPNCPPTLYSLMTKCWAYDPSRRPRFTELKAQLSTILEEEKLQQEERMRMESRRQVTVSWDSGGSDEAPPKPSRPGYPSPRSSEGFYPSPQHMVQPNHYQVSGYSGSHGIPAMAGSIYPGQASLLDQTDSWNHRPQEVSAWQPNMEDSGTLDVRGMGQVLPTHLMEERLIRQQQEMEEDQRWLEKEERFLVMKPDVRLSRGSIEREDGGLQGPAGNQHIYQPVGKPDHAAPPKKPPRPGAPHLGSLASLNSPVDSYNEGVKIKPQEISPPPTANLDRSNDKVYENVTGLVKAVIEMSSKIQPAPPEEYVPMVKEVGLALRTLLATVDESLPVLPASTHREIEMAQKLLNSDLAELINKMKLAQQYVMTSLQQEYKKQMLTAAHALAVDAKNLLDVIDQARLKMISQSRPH

No constants are given. Whether binding was seen depends on the method and setting. In cells and extracts the contact can be indirect. Some entries that bind do so weakly or less than the wild type.

Test [1] has as its target FAK K1001A/K1003A (UniProt Q00944). Nature of the test: co-IP; 1 mg SCC cell lysate (FAK WT, FAK K1001A/K1003A or FAK-/-; RIPA or NP40 buffer) with 2 ug antibody or 10 ul agarose-conjugated antibody at 4 C overnight; beads washed three times in lysis buffer and once in 0.6 M LiCl; western blot; for the LC3B IP FAK-/- cells with Eps8 or non-targeting shRNA.
Test [2] has as its target FAK WT (wild-type focal adhesion kinase re-expressed in FAK-/- SCC cells) (UniProt Q00944). The description is as above.

B1: p130Cas (protein, UniProt Q61140 1-874)
chain: MTVPNVLAKALYDNVAESPDELSFRKGDIMTVLERDTQGLDGWWLCSLHGRQGIVPGNRLKILVGMYDKKPVGPGPGPPATPPQPQPSLPQGVHAPVPPASQYSPMLPTAYQPQSDNVYLVPTPSKTQQGLYQAPGPNPQFQSPPAKQTSTFSKQTPHHSFPSPATDLYQVPPGPGSPAQDIYQVPPSAGIGHDIYQVPPSLDTRGWEGTKPPAKVVVPTRVGQGYVYEAAQTEQDEYDTPRHLLAPGPQDIYDVPPVRGLLPNQYGQEVYDTPPMAVKGPNGRDPLLDVYDVPPSVEKGLLSSSHHSVYDVPPSVSKDVPDGPLLREETYDVPPAFAKPKPFDPTRHPLILAAPPPDSPAAEDVYDVPPPAPDLYDVPPGLRRPGPGTLYDVPRERVLPPEVADGSVVDDGVYAVPPPAEREAPTDGKRLSASSTGSTRSSQSASSLEVVVPGREPLELEVAVESLARLQQGVSTTVAHLLDLVGSASGPGGWRGTSEPQEPPAQDLKAAVAAVHGAVHELLEFARGAVSNATHTSDRTLHAKLSRQLQKMEDVYQTLVVHGQVLDSGRGSPGFTPEDLDRLVACSRAVPEDAKQLASFLHGNASLLFRRTKAPGPGPEGSSSLHPNPTDKASSIQSRPLPSPPKFTSQDSPDGQYENSEGGWMEDYDYVHLQGKEEFEKTQKELLERGNIMRQGKGQLELQQLKQFERLEQEVSRPIDHDLANWTPAQPLVPGRTGGLGPSDRQLLLFYLEQCEANLTTLTDAVDAFFTAVATNQPPKIFVAHSKFVILSAHKLVFIGDTLSRQAKAADVRSQVTHYSNLLCDLLRGIVATTKAAALQYPSPSAAQDMVDRVKELGHSTQQFRRVLGQLAAA
In the case of B1, the binding result in test [1] and in test [2] was “binds” throughout.
